Reference: US8637511B2, “Aminopyrimidines useful as kinase inhibitors” (Vertex Pharmaceuticals Incorporated, priority 2005, dated 2014)
Some entries share one result that the patent states for a list of compounds.

experiment: Microsomal stability assay; assay type: in vitro ADME; settings: after 30 minutes

| Compound | stability to human liver microsomes, % remaining [%] |
| --- | --- |
| COc1cccc(C(=O)Nc2ccc(Sc3nc(Nc4cc(C)n[nH]4)cc(N4CCC4)n3)cc2)c1 [Compound 116] | > 50 |
| Cc1cc(Nc2cc(N3CC(O)(C4CC4)C3)nc(Sc3ccc(NC(=O)C4CC4)cc3)n2)n[nH]1 [Compound 103] | > 50 |
| Cc1cc(Nc2cc(N3CCC3)nc(Sc3ccc(NC(=O)c4cccc(CN(C)C)c4)cc3)n2)[nH]n1 [Compound 138] | > 50 |
| Cc1cc(Nc2cc(N3CC(O)(C4CC4)C3)nc(Sc3ccc(NC(=O)C4CC4(F)F)cc3)n2)[nH]n1 (stereo not drawn) [Compound 113] | > 50 |
| Cc1cc(Nc2cc(N3CCC3)nc(Sc3ccc(N(C)C(=O)c4c(F)cccc4F)cc3)n2)n[nH]1 [Compound 11] | > 50 |
| Cc1cc(Nc2cc(N3CCC3)nc(Sc3cccc(NC(=O)c4ccccc4Cl)c3)n2)[nH]n1 [Compound 49] | > 50 |
| O=C(Nc1ccc(Sc2nc(Nc3cc(CO)[nH]n3)cc(N3CCC3)n2)cc1)c1cccc(Cl)c1Cl [Compound 91] | > 50 |
| Cc1cc(Nc2cc(N3CCC3)nc(Sc3ccc(NC(=O)c4nccn4C)cc3)n2)n[nH]1 [Compound 166] | > 50 |
| Cc1cc(Nc2cc(N3CC(F)(C4CC4)C3)nc(Sc3ccc(NC(=O)C4CC4(F)F)cc3)n2)[nH]n1 (stereo not drawn) [Compound 194] | > 50 |
| Cc1cc(Nc2cc(N3CCC3)nc(Sc3ccc(NC(=O)c4ccccc4F)cc3)n2)n[nH]1 [Compound 9] | > 50 |
| COCc1cc(Nc2cc(N3CCC3)nc(Sc3ccc(NC(=O)c4ccccc4Cl)cc3)n2)n[nH]1 [Compound 82] | > 50 |
| Cc1cc(Nc2cc(N3CCC3)nc(Sc3ccc(NC(=O)c4ccc(CN5CCC5)cc4)cc3)n2)[nH]n1 [Compound 139] | > 50 |
| Cc1cc(Nc2cc(N3CCC3)nc(Sc3ccc(NC(=O)c4cc(Cl)ccc4Cl)cc3)n2)n[nH]1 [Compound 163] | > 50 |
| CC(C)(C)c1cc(Nc2cc(N3CCC3)nc(Sc3ccc(NC(=O)c4ccccc4Cl)cc3)n2)n[nH]1 [Compound 69] | > 50 |
| Cc1cc(Nc2cc(N3CC(F)(C4CC4)C3)nc(Sc3ccc(NC(=O)CC(F)(F)F)cc3)n2)[nH]n1 [Compound 135] | > 50 |
| Cc1cc(Nc2cc(N3CCC3)nc(Sc3ccc(NC(=O)c4ccccc4C)cc3)n2)n[nH]1 [Compound 31] | > 50 |
| Cc1cc(Nc2cc(N3CCC3)nc(Sc3ccc(NC(=O)c4cnccc4C(F)(F)F)cc3)n2)[nH]n1 [Compound 59] | > 50 |
| Cc1cc(Nc2cc(N3CCC3)nc(Sc3ccc(NC(=O)c4c(F)cccc4F)cc3)n2)n[nH]1 [Compound 7] | > 50 |

| Compound | stability to human liver microsomes, % remaining [%] |
| --- | --- |
| CCC(=O)Nc1ccc(Sc2nc(Nc3cc(C)n[nH]3)cc(N3CC(O)(C(C)C)C3)n2)cc1 [Compound 99] | > 50 |
| CCNC(=O)c1ccc(Sc2nc(Nc3cc(C)[nH]n3)cc(N3CCC3)n2)cc1 [Compound 20] | > 50 |
| Cc1cc(Nc2cc(N3CCC3)nc(Sc3ccc(NC(=O)c4ccccc4C(F)(F)F)cc3)n2)[nH]n1 [Compound 56] | > 50 |
| Cc1cc(Nc2cc(N3CC(N4CCOCC4)C3)nc(Sc3ccc4nc(C(F)(F)F)n(C)c4c3)n2)[nH]n1 [Compound 195] | > 50 |
| Cc1cc(Nc2cc(CN3CCC3)nc(Sc3ccc(NC(=O)c4ccccc4C(F)(F)F)cc3)n2)[nH]n1 [Compound 132] | > 50 |
| Cc1cc(Nc2cc(N3CCC3)nc(Sc3ccc(NC(=O)c4ccccc4C(F)F)cc3)n2)[nH]n1 [Compound 120] | > 50 |
| CCC(=O)Nc1ccc(Sc2nc(Nc3cc(C)n[nH]3)cc(N3CC(O)(C4CCCC4)C3)n2)cc1 [Compound 97] | > 50 |
| Cc1cc(Nc2cc(N3CCC3)nc(Sc3ccc(NC(=O)c4cccc(F)c4F)cc3)n2)n[nH]1 [Compound 33] | > 50 |
| CCC(=O)Nc1ccc(Sc2nc(Nc3cc(C)n[nH]3)cc(N3CC(O)(CC)C3)n2)cc1 [Compound 98] | > 50 |
| CCC(=O)Nc1ccc(Sc2nc(Nc3cc(C)n[nH]3)cc(N3CC(O)(C4CC4)C3)n2)cc1 [Compound 85] | > 50 |
| Cc1cc(Nc2cc(N3CC(O)(C4CC4)C3)nc(Sc3ccc(NC(=O)C4CCCC4)cc3)n2)[nH]n1 [Compound 104] | > 50 |
| Cc1cc(Nc2cc(N3CC(O)(C4CC4)C3)nc(Sc3ccc(NC(=O)C4CC4)cc3F)n2)[nH]n1 [Compound 110] | > 50 |
| CCC(=O)Nc1ccc(Sc2nc(Nc3cc(C)[nH]n3)cc(N3CCC3)n2)cc1 [Compound 14] | > 50 |
| O=C(Nc1ccc(Sc2nc(Nc3cc(CO)[nH]n3)cc(N3CCC3)n2)cc1)c1ccccc1Cl [Compound 75] | > 50 |
| O=C(Nc1ccc(Sc2nc(Nc3cc(C4CC4)[nH]n3)cc(N3CCC3)n2)cc1)c1ccccc1Cl [Compound 65] | > 50 |
| Cc1cc(Nc2cc(N3CCC3)nc(Sc3ccc(NC(=O)c4ccc(CN(C)C)cc4)cc3)n2)[nH]n1 [Compound 137] | > 50 |
| Cc1cc(Nc2cc(N3CC(F)(C4CC4)C3)nc(Sc3ccc(NC(=O)C4CC4)cc3)n2)n[nH]1 [Compound 128] | > 50 |
| Cc1cc(Nc2cc(N3CC(F)(C4CC4)C3)nc(Sc3ccc(N)cc3)n2)[nH]n1 [Compound 209] | > 50 |

same assay, conditions: after 60 minutes

| Compound | stability to human liver microsomes, % remaining [%] |
| --- | --- |
| COc1cccc(C(=O)Nc2ccc(Sc3nc(Nc4cc(C)n[nH]4)cc(N4CCC4)n3)cc2)c1 [Compound 116] | > 50 |
| Cc1cc(Nc2cc(N3CC(O)(C4CC4)C3)nc(Sc3ccc(NC(=O)C4CC4)cc3)n2)n[nH]1 [Compound 103] | > 50 |
| Cc1cc(Nc2cc(N3CC(O)(C4CC4)C3)nc(Sc3ccc(NC(=O)C4CC4(F)F)cc3)n2)[nH]n1 (stereo not drawn) [Compound 113] | > 50 |
| Cc1cc(Nc2cc(N3CC(F)(C4CC4)C3)nc(Sc3ccc(NC(=O)C4CC4(F)F)cc3)n2)[nH]n1 (stereo not drawn) [Compound 194] | > 50 |
| Cc1cc(Nc2cc(N3CCC3)nc(Sc3ccc(NC(=O)c4ccccc4F)cc3)n2)n[nH]1 [Compound 9] | > 50 |
| Cc1cc(Nc2cc(N3CC(F)(C4CC4)C3)nc(Sc3ccc(NC(=O)C4(C(F)(F)F)CC4)cc3)n2)[nH]n1 [Compound 143] | > 50 |
| Cc1cc(Nc2cc(N3CC(F)(C4CC4)C3)nc(Sc3ccc(NC(=O)CC(F)(F)F)cc3)n2)[nH]n1 [Compound 135] | > 50 |
| Cc1cc(Nc2cc(N3CC(F)(C4CC4)C3)nc(Sc3ccc(NC(=O)CCC(F)(F)F)cc3)n2)[nH]n1 [Compound 157] | > 50 |
| Cc1cc(Nc2cc(N3CCC3)nc(Sc3ccc(NC(=O)c4ccccc4C)cc3)n2)n[nH]1 [Compound 31] | > 50 |
| Cc1cc(Nc2cc(N3CCC3)nc(Sc3ccc(NC(=O)c4cnccc4C(F)(F)F)cc3)n2)[nH]n1 [Compound 59] | > 50 |
| Cc1cc(Nc2cc(N3CCC3)nc(Sc3ccc(NC(=O)c4c(F)cccc4F)cc3)n2)n[nH]1 [Compound 7] | > 50 |
| Cc1cc(Nc2cc(N3CCC3)nc(Sc3ccc(NC(=O)c4ccccc4C(F)(F)F)cc3)n2)[nH]n1 [Compound 56] | > 50 |
| CCC(=O)Nc1ccc(Sc2nc(Nc3cc(C)[nH]n3)cc(N3CC(F)(C4CC4)C3)n2)cc1 [Compound 147] | > 50 |
| Cc1cc(Nc2cc(CN3CCC3)nc(Sc3ccc(NC(=O)c4ccccc4C(F)(F)F)cc3)n2)[nH]n1 [Compound 132] | > 50 |
| Cc1cc(Nc2cc(N3CCC3)nc(Sc3ccc(NC(=O)c4ccccc4C(F)F)cc3)n2)[nH]n1 [Compound 120] | > 50 |
| Cc1cc(Nc2cc(N3CCC3)nc(Sc3ccc(NC(=O)c4cccc(F)c4F)cc3)n2)n[nH]1 [Compound 33] | > 50 |
| Cc1cc(Nc2cc(N3CCC3)nc(Sc3ccc(C(=O)NC4CC4)cc3)n2)n[nH]1 [Compound 18] | > 50 |
| CCC(=O)Nc1ccc(Sc2nc(Nc3cc(C)n[nH]3)cc(N3CC(O)(CC)C3)n2)cc1 [Compound 98] | > 50 |
| CCC(=O)Nc1ccc(Sc2nc(Nc3cc(C)n[nH]3)cc(N3CC(O)(C4CC4)C3)n2)cc1 [Compound 85] | > 50 |
| CCC(=O)Nc1ccc(Sc2nc(Nc3cc(C)[nH]n3)cc(N3CCC3)n2)cc1 [Compound 14] | > 50 |
| Cc1cc(Nc2cc(N3CC(F)(C4CC4)C3)nc(Sc3ccc(NC(=O)C4CC4)cc3)n2)n[nH]1 [Compound 128] | > 50 |
